According to the supplement of paper PMC10849652:
This is one part of the list.

Amino acid sequences for entries named in this document (tags omitted). A change or cut given only in a name is not applied to a line headed by its entry.
UniProt P41567, whole entry, looked up: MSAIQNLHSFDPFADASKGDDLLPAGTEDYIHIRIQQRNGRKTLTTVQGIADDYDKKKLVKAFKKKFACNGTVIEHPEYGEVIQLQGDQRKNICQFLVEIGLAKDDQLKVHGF
UniProt O14638, whole entry, looked up: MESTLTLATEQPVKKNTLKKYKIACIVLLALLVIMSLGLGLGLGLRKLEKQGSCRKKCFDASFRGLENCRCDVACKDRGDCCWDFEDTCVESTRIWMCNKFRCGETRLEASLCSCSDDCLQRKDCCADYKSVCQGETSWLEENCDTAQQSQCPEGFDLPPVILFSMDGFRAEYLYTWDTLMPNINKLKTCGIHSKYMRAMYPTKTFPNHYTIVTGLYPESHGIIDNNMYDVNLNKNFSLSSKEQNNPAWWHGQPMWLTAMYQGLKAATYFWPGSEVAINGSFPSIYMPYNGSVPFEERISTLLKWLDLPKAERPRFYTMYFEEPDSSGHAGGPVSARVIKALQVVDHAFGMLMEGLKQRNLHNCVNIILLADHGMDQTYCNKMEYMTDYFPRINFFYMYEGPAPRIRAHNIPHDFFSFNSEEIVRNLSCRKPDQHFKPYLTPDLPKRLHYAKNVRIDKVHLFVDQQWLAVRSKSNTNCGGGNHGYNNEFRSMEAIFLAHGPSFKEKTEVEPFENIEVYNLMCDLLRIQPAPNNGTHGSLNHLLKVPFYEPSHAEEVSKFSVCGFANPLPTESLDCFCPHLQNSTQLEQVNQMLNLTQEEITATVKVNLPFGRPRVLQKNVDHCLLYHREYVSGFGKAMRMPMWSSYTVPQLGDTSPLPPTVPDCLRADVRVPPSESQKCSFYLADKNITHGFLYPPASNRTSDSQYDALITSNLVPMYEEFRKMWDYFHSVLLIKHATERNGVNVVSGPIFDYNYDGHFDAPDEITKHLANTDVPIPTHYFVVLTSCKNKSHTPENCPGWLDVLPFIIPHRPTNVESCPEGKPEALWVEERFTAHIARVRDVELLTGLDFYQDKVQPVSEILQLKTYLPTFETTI
UniProt Q13347, whole entry, looked up: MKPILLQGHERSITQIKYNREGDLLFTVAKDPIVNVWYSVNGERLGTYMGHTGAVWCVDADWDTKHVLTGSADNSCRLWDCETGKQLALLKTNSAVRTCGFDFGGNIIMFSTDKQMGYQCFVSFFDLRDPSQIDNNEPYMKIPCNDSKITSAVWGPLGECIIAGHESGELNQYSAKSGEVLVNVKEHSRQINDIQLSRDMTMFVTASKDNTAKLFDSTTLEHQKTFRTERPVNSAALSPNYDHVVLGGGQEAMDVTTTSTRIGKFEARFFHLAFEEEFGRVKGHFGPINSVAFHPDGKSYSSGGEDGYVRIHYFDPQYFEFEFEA
UniProt O43768: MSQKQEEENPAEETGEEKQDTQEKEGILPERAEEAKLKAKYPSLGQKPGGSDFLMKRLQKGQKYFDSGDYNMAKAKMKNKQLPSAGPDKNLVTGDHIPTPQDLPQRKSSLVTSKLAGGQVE
UniProt Q05639, whole entry, looked up: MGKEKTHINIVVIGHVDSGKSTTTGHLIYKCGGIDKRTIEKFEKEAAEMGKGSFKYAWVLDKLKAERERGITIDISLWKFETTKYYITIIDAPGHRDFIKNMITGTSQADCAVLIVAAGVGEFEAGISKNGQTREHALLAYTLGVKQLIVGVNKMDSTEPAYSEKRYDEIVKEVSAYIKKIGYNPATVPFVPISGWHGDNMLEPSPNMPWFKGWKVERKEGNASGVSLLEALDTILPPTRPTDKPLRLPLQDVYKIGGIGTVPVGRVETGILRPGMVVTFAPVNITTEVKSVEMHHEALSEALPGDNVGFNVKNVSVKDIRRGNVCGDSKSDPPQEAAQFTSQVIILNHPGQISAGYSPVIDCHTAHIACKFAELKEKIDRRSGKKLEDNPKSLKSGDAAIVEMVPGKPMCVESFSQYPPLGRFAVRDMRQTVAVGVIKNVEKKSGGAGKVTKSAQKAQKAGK
UniProt Q13144, whole entry, looked up: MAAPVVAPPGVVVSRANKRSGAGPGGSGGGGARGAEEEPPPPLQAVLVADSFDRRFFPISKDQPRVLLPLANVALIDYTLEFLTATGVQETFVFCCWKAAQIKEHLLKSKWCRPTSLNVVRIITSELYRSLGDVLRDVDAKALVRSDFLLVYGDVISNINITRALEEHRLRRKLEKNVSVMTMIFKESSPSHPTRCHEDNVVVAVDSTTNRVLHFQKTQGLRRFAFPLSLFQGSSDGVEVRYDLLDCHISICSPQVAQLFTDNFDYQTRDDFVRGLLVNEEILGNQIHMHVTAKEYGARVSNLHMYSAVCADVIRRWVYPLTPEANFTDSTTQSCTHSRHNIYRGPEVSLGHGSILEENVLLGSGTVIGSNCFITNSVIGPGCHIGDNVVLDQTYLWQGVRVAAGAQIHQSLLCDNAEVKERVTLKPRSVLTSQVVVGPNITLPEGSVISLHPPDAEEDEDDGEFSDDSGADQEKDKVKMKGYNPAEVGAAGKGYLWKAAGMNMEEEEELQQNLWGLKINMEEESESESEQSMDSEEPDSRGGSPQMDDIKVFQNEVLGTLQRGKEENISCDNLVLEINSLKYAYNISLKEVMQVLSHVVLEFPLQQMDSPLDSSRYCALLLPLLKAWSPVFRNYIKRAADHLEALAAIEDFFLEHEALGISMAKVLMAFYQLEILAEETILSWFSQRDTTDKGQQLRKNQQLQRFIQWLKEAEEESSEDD
UniProt Q8N9N8: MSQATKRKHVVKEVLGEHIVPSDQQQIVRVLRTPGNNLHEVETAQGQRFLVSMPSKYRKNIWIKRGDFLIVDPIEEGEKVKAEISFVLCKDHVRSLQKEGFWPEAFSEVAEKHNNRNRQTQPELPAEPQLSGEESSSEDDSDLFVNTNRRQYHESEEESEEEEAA
UniProt O95163: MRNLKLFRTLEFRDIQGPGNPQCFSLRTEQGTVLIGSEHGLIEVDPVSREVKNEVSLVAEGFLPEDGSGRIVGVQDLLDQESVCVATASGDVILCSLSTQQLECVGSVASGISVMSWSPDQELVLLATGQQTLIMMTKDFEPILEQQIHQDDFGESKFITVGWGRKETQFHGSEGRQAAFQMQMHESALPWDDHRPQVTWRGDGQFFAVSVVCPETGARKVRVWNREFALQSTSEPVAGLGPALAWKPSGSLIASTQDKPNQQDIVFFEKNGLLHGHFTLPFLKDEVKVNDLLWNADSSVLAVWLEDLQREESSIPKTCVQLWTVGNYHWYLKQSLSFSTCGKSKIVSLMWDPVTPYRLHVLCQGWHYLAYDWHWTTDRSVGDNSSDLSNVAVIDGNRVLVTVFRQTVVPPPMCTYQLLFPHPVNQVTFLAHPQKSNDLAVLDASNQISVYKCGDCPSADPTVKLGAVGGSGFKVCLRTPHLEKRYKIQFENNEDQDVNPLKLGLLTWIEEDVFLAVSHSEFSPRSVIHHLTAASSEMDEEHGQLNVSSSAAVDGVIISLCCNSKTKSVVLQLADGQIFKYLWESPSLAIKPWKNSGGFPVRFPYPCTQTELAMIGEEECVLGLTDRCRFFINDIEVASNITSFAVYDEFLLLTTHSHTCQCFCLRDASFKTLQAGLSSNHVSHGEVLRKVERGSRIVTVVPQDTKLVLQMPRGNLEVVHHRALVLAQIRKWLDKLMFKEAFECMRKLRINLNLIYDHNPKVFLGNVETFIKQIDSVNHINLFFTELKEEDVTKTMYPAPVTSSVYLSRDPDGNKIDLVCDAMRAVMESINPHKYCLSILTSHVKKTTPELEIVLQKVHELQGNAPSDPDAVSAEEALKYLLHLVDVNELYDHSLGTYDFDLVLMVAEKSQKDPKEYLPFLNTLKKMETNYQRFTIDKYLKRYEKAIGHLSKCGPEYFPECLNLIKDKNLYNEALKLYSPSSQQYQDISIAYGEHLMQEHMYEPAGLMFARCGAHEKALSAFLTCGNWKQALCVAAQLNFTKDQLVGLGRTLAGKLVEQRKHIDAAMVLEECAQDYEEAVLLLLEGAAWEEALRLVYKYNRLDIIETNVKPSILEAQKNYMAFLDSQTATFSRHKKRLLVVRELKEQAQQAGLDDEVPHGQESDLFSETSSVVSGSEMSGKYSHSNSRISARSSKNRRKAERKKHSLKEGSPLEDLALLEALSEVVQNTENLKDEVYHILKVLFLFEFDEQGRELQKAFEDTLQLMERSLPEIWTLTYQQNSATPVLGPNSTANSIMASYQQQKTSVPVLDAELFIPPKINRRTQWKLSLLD
UniProt Q9HC35: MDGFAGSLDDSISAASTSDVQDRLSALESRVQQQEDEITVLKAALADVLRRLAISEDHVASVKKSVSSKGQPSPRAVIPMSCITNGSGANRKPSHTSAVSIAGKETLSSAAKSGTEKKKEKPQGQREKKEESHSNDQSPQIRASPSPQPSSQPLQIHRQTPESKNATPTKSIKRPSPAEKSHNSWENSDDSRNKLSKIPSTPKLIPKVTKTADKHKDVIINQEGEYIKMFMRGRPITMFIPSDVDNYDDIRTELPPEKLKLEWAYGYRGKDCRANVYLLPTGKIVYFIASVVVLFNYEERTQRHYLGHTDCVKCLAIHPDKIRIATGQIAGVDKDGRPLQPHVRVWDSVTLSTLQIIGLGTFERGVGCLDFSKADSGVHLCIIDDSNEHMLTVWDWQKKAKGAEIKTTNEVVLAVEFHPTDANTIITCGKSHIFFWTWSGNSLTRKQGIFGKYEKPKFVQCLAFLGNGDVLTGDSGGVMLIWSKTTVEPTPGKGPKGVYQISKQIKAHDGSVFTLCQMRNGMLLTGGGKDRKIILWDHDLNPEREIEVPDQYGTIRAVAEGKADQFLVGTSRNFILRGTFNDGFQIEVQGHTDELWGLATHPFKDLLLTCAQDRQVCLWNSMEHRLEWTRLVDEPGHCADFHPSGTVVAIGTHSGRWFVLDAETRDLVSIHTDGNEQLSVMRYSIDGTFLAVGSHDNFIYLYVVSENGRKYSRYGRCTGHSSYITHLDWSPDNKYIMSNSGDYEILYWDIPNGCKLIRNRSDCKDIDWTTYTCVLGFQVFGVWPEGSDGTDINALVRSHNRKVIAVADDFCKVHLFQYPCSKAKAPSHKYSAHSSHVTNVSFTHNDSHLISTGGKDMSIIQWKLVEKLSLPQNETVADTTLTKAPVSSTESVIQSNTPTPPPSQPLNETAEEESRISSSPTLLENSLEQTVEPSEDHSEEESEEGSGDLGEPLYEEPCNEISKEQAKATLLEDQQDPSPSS
UniProt O15372, whole entry, looked up: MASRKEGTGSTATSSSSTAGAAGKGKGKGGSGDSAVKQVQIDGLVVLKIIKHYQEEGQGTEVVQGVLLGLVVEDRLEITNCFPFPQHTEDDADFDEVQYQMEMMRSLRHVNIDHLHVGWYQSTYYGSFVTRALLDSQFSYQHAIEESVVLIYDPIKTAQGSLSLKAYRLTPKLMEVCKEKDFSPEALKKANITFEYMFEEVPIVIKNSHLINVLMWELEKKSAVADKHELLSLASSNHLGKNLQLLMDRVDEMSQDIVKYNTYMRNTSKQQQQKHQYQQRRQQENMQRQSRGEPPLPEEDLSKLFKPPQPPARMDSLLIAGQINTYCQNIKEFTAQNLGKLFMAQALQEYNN
UniProt Q7L5Y1: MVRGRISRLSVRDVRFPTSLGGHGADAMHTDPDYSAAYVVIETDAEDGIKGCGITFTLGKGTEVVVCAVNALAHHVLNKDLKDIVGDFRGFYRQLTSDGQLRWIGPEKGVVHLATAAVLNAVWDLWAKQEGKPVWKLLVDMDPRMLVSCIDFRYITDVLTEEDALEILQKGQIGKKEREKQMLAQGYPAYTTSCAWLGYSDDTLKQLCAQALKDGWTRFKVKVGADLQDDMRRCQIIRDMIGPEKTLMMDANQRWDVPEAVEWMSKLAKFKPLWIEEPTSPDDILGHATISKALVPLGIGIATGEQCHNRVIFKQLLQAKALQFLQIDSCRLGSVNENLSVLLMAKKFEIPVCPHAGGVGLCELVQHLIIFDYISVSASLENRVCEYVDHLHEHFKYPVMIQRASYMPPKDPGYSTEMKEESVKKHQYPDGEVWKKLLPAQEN
UniProt Q96EB1: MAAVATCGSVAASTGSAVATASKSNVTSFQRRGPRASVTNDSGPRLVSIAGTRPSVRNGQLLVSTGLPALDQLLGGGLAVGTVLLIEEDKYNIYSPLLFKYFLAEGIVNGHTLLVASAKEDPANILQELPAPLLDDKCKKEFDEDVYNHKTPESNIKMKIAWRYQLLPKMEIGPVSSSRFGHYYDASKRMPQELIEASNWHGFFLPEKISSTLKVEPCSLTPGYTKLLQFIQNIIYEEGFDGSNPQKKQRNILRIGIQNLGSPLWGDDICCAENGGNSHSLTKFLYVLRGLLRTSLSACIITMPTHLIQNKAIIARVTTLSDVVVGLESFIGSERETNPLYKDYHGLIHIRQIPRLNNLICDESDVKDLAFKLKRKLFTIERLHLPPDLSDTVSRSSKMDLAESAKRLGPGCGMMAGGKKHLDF
UniProt P47813, whole entry, looked up: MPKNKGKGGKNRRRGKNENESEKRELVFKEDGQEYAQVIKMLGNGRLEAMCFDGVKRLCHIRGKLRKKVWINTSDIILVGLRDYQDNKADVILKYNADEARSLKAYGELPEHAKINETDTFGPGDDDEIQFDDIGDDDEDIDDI

Assays:
Test in all cases: log2 fold change, soluble protein after heating vs DMSO (PISA); higher = thermal stabilisation; K562 cells, 10 uM, 30 min; active = over 0.2 and 3.5 SD of the protein, either way, in both replicates (recomputed)
[1] = compound: CC[C@@H]1C(=O)N(C)c2cnc(Nc3ccc(C(=O)NC4CCN(C)CC4)cc3OC)nc2N1C1CCCC1
How it was run: (§1)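 Soluble protein was quantified by TMTpro 16plex LC-MS/MS after channel sums were equalised. It was obtained as the supernatant after 21,000xg for 90 min from pooled aliquots of K562 cells (2×10^6 cells/mL, 10 μM compound, 30 min) heated for 3 min across 48°C-58°C and extracted in PBS with 0.5% NP-40 at 4°C. Thermal stability values are relative to control samples and come from duplicates. They are given as log2 fold changes.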

volasertib = compound: CC[C@@H]1C(=O)N(C)c2cnc(Nc3ccc(C(=O)N[C@H]4CC[C@H](N5CCN(CC6CC6)CC5)CC4)cc3OC)nc2N1C(C)C [volasertib]
How it was run: as §1

[2] = compound: CC[C@H](C)N1C=C(C2=C(C=C(C=C21)C3=CN=C(C=C3)N4CCNCC4)C(=O)NCC5=C(C=C(NC5=O)C)C)C
How it was run: as §1

epoxomicin = compound: CC[C@H](C)[C@@H](C(=O)N[C@@H]([C@@H](C)O)C(=O)N[C@@H](CC(C)C)C(=O)[C@]1(CO1)C)NC(=O)[C@H]([C@@H](C)CC)N(C)C(=O)C [epoxomicin]
How it was run: as §1

[3] = compound: CCn1c(C(=O)N(C2CC2)C2CC2)cc2c3c(ncn3C)c(Nc3cc(C)n(C)n3)nc21
How it was run: as §1

[4] = compound: CCn1cc(-c2ccnc3[nH]c(-c4cccc(CN(C)C)c4)cc23)c(-c2ccc(NC(=O)N(C)C)cc2)n1
How it was run: as §1

[5] = compound: CN(C)CC(=O)Nc1ccc2[nH]c(=O)c3ccccc3c2c1
How it was run: as §1

rosiglitazone = compound: CN(CCOC1=CC=C(C=C1)C[C@H]2C(=O)NC(=O)S2)C3=CC=CC=N3 (racemic) [rosiglitazone]
How it was run: as §1

[6] = compound: CN1C2=C(C3=C1C(=O)N(N=C3)CC4=CC(=CC=C4)N)SC(=C2)S(=O)C
How it was run: as §1

[7] = compound: CN1CCC(CNc2ccc3ncc(-c4cccc(OC(F)(F)F)c4)n3n2)CC1
How it was run: as §1

Measured: log2 fold change

EIF2S2 (UniProt P20042)
inactive: [1] 0.072 | volasertib 0.09 | [2] 0.016 | epoxomicin -0.096 | [3] -0.005 | [4] 0.031 | [5] -0.071 | rosiglitazone -0.029 | [6] 0.072 | [7] 0.122

EIF1 (UniProt P41567)
inactive: [1] 0.034 | volasertib 0.174 | [2] -0.033 | epoxomicin 0.052 | [3] 0.046 | [4] 0.045 | [5] -0.043 | rosiglitazone 0 | [6] -0.025 | [7] -0.011

ENPP3 (UniProt O14638)
inactive: [1] -0.191 | volasertib 0.09 | [2] 0.09 | epoxomicin 0.056 | [3] 0.038 | [4] -0.018 | [5] -0.104 | rosiglitazone -0.117 | [6] 0.107 | [7] -0.01

EMC3 (UniProt Q9P0I2)
inactive: [1] -0.062 | volasertib -0.016 | [2] 0.012 | epoxomicin 0.041 | [3] -0.026 | [4] -0.112 | [5] 0.015 | rosiglitazone 0.021 | [6] -0.051 | [7] 0.049

EIF5 (UniProt P55010)
inactive: [1] -0.066 | volasertib -0.163 | [2] 0.029 | epoxomicin 0.012 | [3] -0.02 | [4] -0.022 | [5] 0.031 | rosiglitazone 0.03 | [6] -0.101 | [7] -0.01

Two entries picked at random from the list so far, as already listed:
ENPP3 (UniProt O14638)
inactive: [1] -0.191 | volasertib 0.09 | [2] 0.09 | epoxomicin 0.056 | [3] 0.038 | [4] -0.018 | [5] -0.104 | rosiglitazone -0.117 | [6] 0.107 | [7] -0.01

EMC3 (UniProt Q9P0I2)
inactive: [1] -0.062 | volasertib -0.016 | [2] 0.012 | epoxomicin 0.041 | [3] -0.026 | [4] -0.112 | [5] 0.015 | rosiglitazone 0.021 | [6] -0.051 | [7] 0.049

The listing continues.

EIF5B (UniProt O60841)
inactive: [1] 0.076 | volasertib 0.042 | [2] 0.041 | epoxomicin -0.044 | [3] 0.01 | [4] 0.02 | [5] -0.024 | rosiglitazone -0.007 | [6] -0.001 | [7] 0.074

ELAVL1 isoform 2 (UniProt Q15717)
inactive: [1] 0.147 | volasertib -0.262 | [2] 0.009 | epoxomicin -0.105 | [3] -0.031 | [4] 0.167 | [5] -0.075 | rosiglitazone -0.098 | [6] 0.311 | [7] 0.014

EIF3I (UniProt Q13347)
inactive: [1] -0.031 | volasertib -0.331 | [2] 0.111 | epoxomicin 0.021 | [3] -0.068 | [4] -0.03 | [5] 0.062 | rosiglitazone 0.055 | [6] 0.066 | [7] -0.097

ELOF1 (UniProt P60002)
inactive: [1] -0.097 | volasertib 0.099 | [2] 0.02 | epoxomicin -0.045 | [3] -0.064 | [4] 0.169 | [5] 0.058 | rosiglitazone -0.079 | [6] 0.026 | [7] 0.225

ENSA isoform 3 (UniProt O43768)
inactive: [1] -0.019 | volasertib 0.147 | [2] -0.044 | epoxomicin -0.006 | [3] 0.021 | [4] 0.011 | [5] -0.043 | rosiglitazone 0.001 | [6] -0.049 | [7] -0.04

EEF1A2 (UniProt Q05639)
inactive: [1] 0.012 | volasertib 0.05 | [2] 0.005 | epoxomicin -0.014 | [3] 0.027 | [4] -0.006 | [5] -0.038 | rosiglitazone 0.05 | [6] -0.089 | [7] -0.047

ELAC2 (UniProt Q9BQ52)
inactive: [1] 0.038 | volasertib 0.098 | [2] -0.022 | epoxomicin 0.006 | [3] -0.042 | [4] -0.006 | [5] -0.013 | rosiglitazone 0.015 | [6] -0.035 | [7] -0.043

EIF2B5 (UniProt Q13144)
inactive: [1] -0.054 | volasertib -0.149 | [2] 0.021 | epoxomicin 0.001 | [3] 0.022 | [4] 0.036 | [5] 0.014 | rosiglitazone -0.013 | [6] -0.023 | [7] 0.114

EI24 (UniProt O14681)
inactive: [1] -0.054 | volasertib -0.065 | [2] -0.032 | epoxomicin 0.004 | [3] -0.043 | [4] -0.053 | [5] 0.028 | rosiglitazone 0.042 | [6] -0.059 | [7] -0.015

EIF1AD (UniProt Q8N9N8)
inactive: [1] -0.002 | volasertib -0.003 | [2] -0.03 | epoxomicin 0.055 | [3] 0.011 | [4] -0.049 | [5] -0.01 | rosiglitazone 0.005 | [6] -0.019 | [7] -0.048

EEF2 (UniProt P13639)
inactive: [1] 0.005 | volasertib 0.057 | [2] -0.003 | epoxomicin 0.034 | [3] 0.013 | [4] 0.002 | [5] -0.002 | rosiglitazone 0.008 | [6] -0.044 | [7] 0.015

ELP1 (UniProt O95163)
inactive: [1] 0.008 | volasertib -0.071 | [2] -0.012 | epoxomicin 0.014 | [3] -0.018 | [4] -0.011 | [5] 0.032 | rosiglitazone 0 | [6] -0.045 | [7] -0.015

EML4 (UniProt Q9HC35)
inactive: [1] 0.094 | volasertib -0.031 | [2] 0.058 | epoxomicin -0.023 | [3] -0.104 | [4] 0.022 | [5] -0.004 | rosiglitazone 0.052 | [6] 0.131 | [7] -0.004

EHD1 (UniProt Q9H4M9)
inactive: [1] -0.052 | volasertib -0.106 | [2] 0.035 | epoxomicin 0.049 | [3] 0.013 | [4] -0.029 | [5] 0.036 | rosiglitazone 0.041 | [6] -0.047 | [7] -0.051

EIF3A (UniProt Q14152)
inactive: [1] -0.09 | volasertib -0.448 | [2] 0.136 | epoxomicin 0.043 | [3] -0.101 | [4] 0.024 | [5] 0.063 | rosiglitazone 0.051 | [6] 0.104 | [7] -0.159

EIF6 (UniProt P56537)
inactive: [1] 0.062 | volasertib 0.084 | [2] -0.079 | epoxomicin -0.024 | [3] -0.012 | [4] 0.035 | [5] -0.035 | rosiglitazone -0.033 | [6] 0.011 | [7] -0.018

EIF3H (UniProt O15372)
inactive: [1] -0.077 | volasertib -0.22 | [2] 0.054 | epoxomicin 0.028 | [3] -0.021 | [4] 0.014 | [5] 0.019 | rosiglitazone 0.014 | [6] 0.069 | [7] -0.106

ENOSF1 (UniProt Q7L5Y1)
inactive: [1] 0.046 | volasertib 0.028 | [2] -0.068 | epoxomicin 0.013 | [3] -0.066 | [4] -0.032 | [5] -0.031 | rosiglitazone 0.029 | [6] -0.045 | [7] 0.041

ELP4 (UniProt Q96EB1)
inactive: [1] 0.057 | volasertib 0.013 | [2] -0.032 | epoxomicin 0.003 | [3] -0.053 | [4] -0.052 | [5] -0.104 | rosiglitazone 0.014 | [6] 0.057 | [7] 0.021

EHD4 (UniProt Q9H223)
inactive: [1] -0.066 | volasertib -0.196 | [2] 0.016 | epoxomicin 0.033 | [3] 0 | [4] -0.022 | [5] 0.013 | rosiglitazone 0.04 | [6] -0.046 | [7] -0.108

EIPR1 (UniProt Q53HC9)
inactive: [1] 0.034 | volasertib -0.063 | [2] 0.018 | epoxomicin 0.105 | [3] -0.026 | [4] -0.019 | [5] 0.033 | rosiglitazone -0.009 | [6] -0.008 | [7] -0.009

ENO3 (UniProt P13929)
inactive: [1] -0.053 | volasertib 0.014 | [2] -0.008 | epoxomicin 0.148 | [3] -0.051 | [4] -0.036 | [5] 0.018 | rosiglitazone 0.002 | [6] -0.115 | [7] 0.094

EIF1AX (UniProt P47813)
inactive: [1] 0.027 | volasertib 0.065 | [2] 0.009 | epoxomicin 0.013 | [3] 0.034 | [4] -0.033 | [5] -0.006 | rosiglitazone -0.042 | [6] -0.09 | [7] 0.091

EMC7 (UniProt Q9NPA0)
inactive: [1] 0.05 | volasertib 0 | [2] 0.033 | epoxomicin 0.02 | [3] -0.005 | [4] -0.002 | [5] 0.004 | rosiglitazone 0.02 | [6] -0.037 | [7] -0.036
